Test results: patent US20070099830A1
These are yes or no findings as the source states them, for the method shown. Binding seen in cells or lysates may run through a third protein. Some entries that bind do so weakly or less than the wild type. For some of these results: Where a sequence is shown, tags or fusion partners need not be part of it.

By UniProt entry, the sequences of proteins in these tests, tags left out. Residues count along the entry.
UniProt P26443, residues 54-558: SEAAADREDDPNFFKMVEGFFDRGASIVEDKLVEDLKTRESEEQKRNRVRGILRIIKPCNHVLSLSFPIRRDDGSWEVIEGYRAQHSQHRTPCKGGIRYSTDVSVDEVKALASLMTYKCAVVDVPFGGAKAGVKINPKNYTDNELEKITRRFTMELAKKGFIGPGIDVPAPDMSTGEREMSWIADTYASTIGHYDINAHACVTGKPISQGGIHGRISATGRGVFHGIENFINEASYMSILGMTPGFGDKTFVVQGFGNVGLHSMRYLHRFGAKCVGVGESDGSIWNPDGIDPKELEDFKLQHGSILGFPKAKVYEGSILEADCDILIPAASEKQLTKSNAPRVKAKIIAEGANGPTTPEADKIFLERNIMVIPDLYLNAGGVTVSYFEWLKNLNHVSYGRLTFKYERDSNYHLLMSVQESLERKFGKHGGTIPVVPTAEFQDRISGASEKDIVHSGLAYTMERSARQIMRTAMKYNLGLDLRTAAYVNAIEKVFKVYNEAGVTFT
UniProt Q9JHR7: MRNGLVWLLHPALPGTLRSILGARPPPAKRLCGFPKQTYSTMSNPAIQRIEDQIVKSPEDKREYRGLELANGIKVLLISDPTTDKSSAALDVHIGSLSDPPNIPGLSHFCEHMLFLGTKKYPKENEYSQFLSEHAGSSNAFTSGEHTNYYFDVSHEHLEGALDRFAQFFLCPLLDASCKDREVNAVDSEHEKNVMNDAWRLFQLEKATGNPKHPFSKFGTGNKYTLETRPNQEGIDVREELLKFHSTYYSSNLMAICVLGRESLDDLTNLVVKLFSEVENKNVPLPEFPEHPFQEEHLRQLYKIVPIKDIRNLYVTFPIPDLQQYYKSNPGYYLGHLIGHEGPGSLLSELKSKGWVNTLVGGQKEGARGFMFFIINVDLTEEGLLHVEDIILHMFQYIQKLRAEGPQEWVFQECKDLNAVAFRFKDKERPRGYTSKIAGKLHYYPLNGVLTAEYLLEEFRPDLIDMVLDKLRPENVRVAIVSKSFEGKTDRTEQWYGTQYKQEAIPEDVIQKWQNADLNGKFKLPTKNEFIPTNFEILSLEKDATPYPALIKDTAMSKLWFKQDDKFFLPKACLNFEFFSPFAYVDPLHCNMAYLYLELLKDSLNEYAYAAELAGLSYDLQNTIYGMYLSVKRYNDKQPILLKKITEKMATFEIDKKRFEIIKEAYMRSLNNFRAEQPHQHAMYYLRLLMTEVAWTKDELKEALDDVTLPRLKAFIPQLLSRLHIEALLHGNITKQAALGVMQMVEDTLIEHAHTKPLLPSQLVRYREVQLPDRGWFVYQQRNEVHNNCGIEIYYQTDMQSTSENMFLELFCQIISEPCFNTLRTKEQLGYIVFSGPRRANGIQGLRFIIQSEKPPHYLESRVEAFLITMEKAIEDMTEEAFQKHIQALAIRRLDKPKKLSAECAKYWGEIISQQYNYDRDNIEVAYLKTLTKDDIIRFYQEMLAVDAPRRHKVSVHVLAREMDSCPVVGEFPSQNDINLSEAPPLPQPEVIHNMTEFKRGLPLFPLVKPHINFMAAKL
UniProt P14735: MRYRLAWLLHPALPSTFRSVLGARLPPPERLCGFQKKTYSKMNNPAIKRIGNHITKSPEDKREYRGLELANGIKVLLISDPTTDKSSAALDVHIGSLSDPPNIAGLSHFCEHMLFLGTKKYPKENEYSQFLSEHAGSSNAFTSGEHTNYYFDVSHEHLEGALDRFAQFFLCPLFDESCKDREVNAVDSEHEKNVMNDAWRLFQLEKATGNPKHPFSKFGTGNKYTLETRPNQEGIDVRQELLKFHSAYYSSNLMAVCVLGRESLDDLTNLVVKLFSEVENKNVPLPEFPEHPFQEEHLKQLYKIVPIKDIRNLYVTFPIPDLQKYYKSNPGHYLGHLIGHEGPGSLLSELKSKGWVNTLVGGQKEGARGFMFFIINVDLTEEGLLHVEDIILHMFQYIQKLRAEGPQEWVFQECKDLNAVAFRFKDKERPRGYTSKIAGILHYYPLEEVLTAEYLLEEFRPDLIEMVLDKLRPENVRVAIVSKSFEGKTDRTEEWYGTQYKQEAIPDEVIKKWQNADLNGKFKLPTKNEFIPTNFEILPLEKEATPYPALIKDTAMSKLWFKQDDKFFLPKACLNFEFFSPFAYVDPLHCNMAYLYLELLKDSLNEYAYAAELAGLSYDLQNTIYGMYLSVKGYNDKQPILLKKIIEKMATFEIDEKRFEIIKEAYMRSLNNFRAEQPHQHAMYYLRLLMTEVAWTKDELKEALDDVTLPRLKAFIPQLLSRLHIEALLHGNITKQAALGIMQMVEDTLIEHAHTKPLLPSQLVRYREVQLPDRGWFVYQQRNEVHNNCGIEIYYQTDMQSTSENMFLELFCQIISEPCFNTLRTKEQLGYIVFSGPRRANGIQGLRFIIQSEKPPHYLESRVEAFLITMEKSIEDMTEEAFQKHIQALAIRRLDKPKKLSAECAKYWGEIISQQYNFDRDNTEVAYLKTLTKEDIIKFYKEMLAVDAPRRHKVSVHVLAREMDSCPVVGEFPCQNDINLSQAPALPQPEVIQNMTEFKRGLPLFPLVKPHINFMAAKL

Columns and labels:
[1] = biological target: glutamate dehydrogenase (endogenous, MIN6 cells) (mouse) (UniProt P26443); test: co-immunoprecipitation from MIN6 cells with anti-mSirt4, western blot (figure legend)
[2] = biological target: glutamate dehydrogenase (endogenous, MIN6 cells) (mouse) (UniProt P26443); test: co-immunoprecipitation of endogenous proteins from MIN6 cells, western blot
[3] = biological target: insulin degrading enzyme (endogenous, MIN6 cells) (mouse) (UniProt Q9JHR7); test: as above
[4] = biological target: insulin degrading enzyme (endogenous, 293T cells) (human) (UniProt P14735); test: co-immunoprecipitation from 293T cells with α-FLAG, western blot

Binder	binding [1]	binding [2]	binding [3]	binding [4]
mouse Sirt4 (endogenous, MIN6 cells) (enzyme) SGLFVPPSPPLDPEKIKELQRFISLSKKLLVMTGAGISTESSIPDYRSEKVGLYARTDRRPIQHIDFVRSAPVRQRYWARNFVGWPQFSSHQPNPAHWALSNWERLGKLHWLVTQNVDALHSKAGSQRLTELHGCMHRVLCLNCGEQTARRVLQERFQALNPSWSAEAQGVAPDGDVFLTEEQVRSFQVPCCDRCGGPLKPDVVFFGDTVNPDKVDFVHRRVKEADSLLVVGSSLQVYSGYRFILTAREQKLPIAILNIGPTRSDDLACLKLDSRCGELLPLIDPRRQHSDVQRLEMNFPLSSAAQDP	binds	binds	binds	–
human Sirt4 with a C-terminal FLAG (enzyme, not shown: small tags and cut ends) IGLFVPASPPLDPEKVKELQRFITLSKRLLVMTGAGISTESGIPDYRSEKVGLYARTDRRPIQHGDFVRSAPIRQRYWARNFVGWPQFSSHQPNPAHWALSTWEKLGKLYWLVTQNVDALHTKAGSRRLTELHGCMDRVLCLDCGEQTPRGVLQERFQVLNPTWSAEAHGLAPDGDVFLSEEQVRSFQVPTCVQCGGHLKPDVVFFGDTVNPDKVDFVHKRVKEADSLLVVGSSLQVYSGYRFILTAWEKKLPIAILNIGPTRSDDLACLKLNSRCGELLPLIDPC	–	–	–	binds
